PubChem BioAssay AID743454, Peter MacCallum Cancer Centre, 2014

Assay: 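Knock-downs lowering viability or raising caspase 3/7 activity in vorinostat-treated resistant cells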 (primary screen)
Cells: human HCT116-VR colon cancer cells, selected for vorinostat resistance
Knock-down reagent: siRNA pool against human genes, 40 nM siRNA pool
Duration: vorinostat for 24 h, read-out about 72 h after transfection
Treatment: vorinostat at 2.5 µM final
Read-out: 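Cell viability by CellTiter-Fluor and caspase 3/7 activity by luminescence, each scaled to mock wells per plate, duplicates averaged, then robust z-scored over all plates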
Direction: viability robust z-score: higher = more viable cells than screen typical; caspase robust z-score: higher = more caspase 3/7 activity than screen typical
Hit rule: 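Hits are knock-downs in viability class RV1/RV2 or caspase class CA1/CA2, excluding ones that killed cells in the no-drug cell-count arm; hits then retested with single siRNAs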
Shown is a random part of about 18,000 reagents. Of all reagents, 450 (2.5%) are marked active. 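Single biological run; no consistent viability z cut-off exists, so the class columns, not z-scores, define the calls.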

| target | PubChem SID | viability hit class | caspase hit class | viability robust z-score | caspase robust z-score | Outcome |
| --- | --- | --- | --- | --- | --- | --- |
| GUCY1A2 (guanylate cyclase 1 soluble subunit alpha 2) | SID134311965 | no change | no change | 0.78 | 0.32 | inactive |
| ZNF407 (zinc finger protein 407) | SID152150310 | no change | no change | -0.36 | 1.08 | inactive |
| EMCN (endomucin) | SID134319879 | no change | no change | 0.12 | -0.38 | inactive |
| RAB3IP (RAB3A interacting protein) | SID135623491 | no change | no change | 1.19 | -0.94 | inactive |
| CAND1 (cullin associated and neddylation dissociated 1) | SID134319598 | no change | no change | 0.39 | 1.68 | inactive |
| MYLK4 (myosin light chain kinase family member 4) | SID152150692 | no change | no change | -0.87 | 0.78 | inactive |
| TBX20 (T-box transcription factor 20) | SID135622476 | no change | no change | 0.38 | 0.6 | inactive |
| TGFA (transforming growth factor alpha) | SID152154003 | no change | no change | -0.31 | -0.38 | inactive |
| NIN (ninein) | SID135623684 | no change | no change | 1.36 | -0.99 | inactive |
| EGF (epidermal growth factor) | SID134315975 | no change | no change | 0.06 | 3.11 | inactive |
| PKP3 (plakophilin 3) | SID135623801 | no change | no change | 0.2 | 0.01 | inactive |
| INSL6 (insulin like 6) | SID134323450 | no change | no change | 0.68 | 0.23 | inactive |
| CATSPERD (catsper channel auxiliary subunit delta) | SID152148944 | no change | no change | 0.22 | -0.58 | inactive |
| DUOX2 (dual oxidase 2) | SID152149068 | no change | no change | -0.32 | -0.6 | inactive |
| UBE2B (ubiquitin conjugating enzyme E2 B) | SID134314622 | no change | no change | 0.22 | -0.65 | inactive |
| FAM9C (family with sequence similarity 9 member C) | SID152153472 | no change | no change | -0.49 | -1.02 | inactive |
| PIGL (phosphatidylinositol glycan anchor biosynthesis class L) | SID152148546 | no change | no change | -1.4 | 1.42 | inactive |
| PAGE5 (PAGE family member 5) | SID135623338 | no change | no change | -0.16 | 1.11 | inactive |
| WDR53 (WD repeat domain 53) | SID134322763 | no change | no change | -0.44 | -1.22 | inactive |
| HSPB6 (heat shock protein family B (small) member 6) | SID134313991 | no change | no change | -0.8 | -0.53 | inactive |
| CD34 (CD34 molecule) | SID152147082 | no change | no change | -0.8 | -0.26 | inactive |
| TM9SF2 (transmembrane 9 superfamily member 2) | SID134314824 | no change | no change | 1.37 | -0.26 | inactive |
| IGSF22 (immunoglobulin superfamily member 22) | SID135623503 | no change | no change | 0.76 | 1.91 | inactive |
| HOXB4 (homeobox B4) | SID152148496 | no change | no change | -0.09 | 0.96 | inactive |
| OR2T35 | SID135624302 | no change | no change | -0.4 | -0.19 | inactive |
| PRKACB (protein kinase cAMP-activated catalytic subunit beta) | SID56478825 | no change | no change | 1.38 | 1.1 | inactive |
| DEFA3 (defensin alpha 3) | SID134316328 | no change | no change | 0.64 | 0.53 | inactive |
| PIPOX (pipecolic acid and sarcosine oxidase) | SID152150202 | RV2 (reduced viability) | no change | -3.53 | 3.97 | active |
| NXPE3 (neurexophilin and PC-esterase domain family member 3) | SID134320552 | no change | no change | -0.47 | -0.33 | inactive |
| SLC25A24 | SID152150584 | no change | no change | -1.31 | -0.66 | inactive |
| OR1A2 (olfactory receptor family 1 subfamily A member 2) | SID134313754 | no change | no change | 1.23 | -0.37 | inactive |
| DUOXA1 (dual oxidase maturation factor 1) | SID134320392 | no change | no change | -2.18 | 0.22 | inactive |
| SMAD2 (SMAD family member 2) | SID152156776 | no change | no change | -0.82 | 1.36 | inactive |
| UTS2B (urotensin 2B) | SID152151709 | no change | no change | 1.01 | 0.46 | inactive |
| ST18 (ST18 C2H2C-type zinc finger transcription factor) | SID134313323 | no change | no change | 0.28 | -0.74 | inactive |
| ZBTB22 (zinc finger and BTB domain containing 22) | SID134319841 | no change | no change | -1.14 | 2.75 | inactive |
| PLD4 (phospholipase D family member 4) | SID152155255 | no change | no change | 0.54 | -1.09 | inactive |
| TMEM266 (transmembrane protein 266) | SID152153372 | no change | no change | 1.64 | 0.82 | inactive |
| SFRP5 (secreted frizzled related protein 5) | SID134315731 | no change | no change | -1.31 | 0.19 | inactive |

Entries listed above marked active:
| target | PubChem SID | viability hit class | caspase hit class | viability robust z-score | caspase robust z-score | Outcome |
| --- | --- | --- | --- | --- | --- | --- |
| PIPOX (pipecolic acid and sarcosine oxidase) | SID152150202 | RV2 (reduced viability) | no change | -3.53 | 3.97 | active |
